Laboratory results taken from paper PMC11213247.

Sequences of proteins named here, by UniProt entry; tags and fusion partners are left off. A change or cut given only in a name is not applied to a line headed by its entry.
UniProt Q69KN0: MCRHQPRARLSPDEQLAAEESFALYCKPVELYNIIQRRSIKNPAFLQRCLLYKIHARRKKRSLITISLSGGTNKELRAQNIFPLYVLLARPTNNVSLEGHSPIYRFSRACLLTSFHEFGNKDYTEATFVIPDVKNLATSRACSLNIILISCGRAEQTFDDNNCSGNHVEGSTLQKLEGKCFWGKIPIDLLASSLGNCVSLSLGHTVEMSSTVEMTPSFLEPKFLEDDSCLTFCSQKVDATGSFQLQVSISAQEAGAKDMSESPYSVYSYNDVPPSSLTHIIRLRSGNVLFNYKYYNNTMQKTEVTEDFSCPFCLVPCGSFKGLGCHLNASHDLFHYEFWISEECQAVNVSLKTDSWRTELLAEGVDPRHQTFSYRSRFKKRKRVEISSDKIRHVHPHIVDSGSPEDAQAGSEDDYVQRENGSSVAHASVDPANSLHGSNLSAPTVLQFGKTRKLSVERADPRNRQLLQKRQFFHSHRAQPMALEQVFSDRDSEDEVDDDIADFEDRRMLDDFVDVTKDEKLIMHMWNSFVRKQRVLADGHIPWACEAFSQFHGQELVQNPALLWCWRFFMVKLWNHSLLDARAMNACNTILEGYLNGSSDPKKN

What was measured:
[1] = molecular target: T1, Venus-tagged JMJ703 (JMJ703-Venus) (rice (Oryza sativa)) (UniProt Q53WJ1); assay: co-IP; both proteins expressed in rice protoplasts; proteins extracted and subjected to Co-IP; detected by anti-HA and anti-GFP
T1 sequence: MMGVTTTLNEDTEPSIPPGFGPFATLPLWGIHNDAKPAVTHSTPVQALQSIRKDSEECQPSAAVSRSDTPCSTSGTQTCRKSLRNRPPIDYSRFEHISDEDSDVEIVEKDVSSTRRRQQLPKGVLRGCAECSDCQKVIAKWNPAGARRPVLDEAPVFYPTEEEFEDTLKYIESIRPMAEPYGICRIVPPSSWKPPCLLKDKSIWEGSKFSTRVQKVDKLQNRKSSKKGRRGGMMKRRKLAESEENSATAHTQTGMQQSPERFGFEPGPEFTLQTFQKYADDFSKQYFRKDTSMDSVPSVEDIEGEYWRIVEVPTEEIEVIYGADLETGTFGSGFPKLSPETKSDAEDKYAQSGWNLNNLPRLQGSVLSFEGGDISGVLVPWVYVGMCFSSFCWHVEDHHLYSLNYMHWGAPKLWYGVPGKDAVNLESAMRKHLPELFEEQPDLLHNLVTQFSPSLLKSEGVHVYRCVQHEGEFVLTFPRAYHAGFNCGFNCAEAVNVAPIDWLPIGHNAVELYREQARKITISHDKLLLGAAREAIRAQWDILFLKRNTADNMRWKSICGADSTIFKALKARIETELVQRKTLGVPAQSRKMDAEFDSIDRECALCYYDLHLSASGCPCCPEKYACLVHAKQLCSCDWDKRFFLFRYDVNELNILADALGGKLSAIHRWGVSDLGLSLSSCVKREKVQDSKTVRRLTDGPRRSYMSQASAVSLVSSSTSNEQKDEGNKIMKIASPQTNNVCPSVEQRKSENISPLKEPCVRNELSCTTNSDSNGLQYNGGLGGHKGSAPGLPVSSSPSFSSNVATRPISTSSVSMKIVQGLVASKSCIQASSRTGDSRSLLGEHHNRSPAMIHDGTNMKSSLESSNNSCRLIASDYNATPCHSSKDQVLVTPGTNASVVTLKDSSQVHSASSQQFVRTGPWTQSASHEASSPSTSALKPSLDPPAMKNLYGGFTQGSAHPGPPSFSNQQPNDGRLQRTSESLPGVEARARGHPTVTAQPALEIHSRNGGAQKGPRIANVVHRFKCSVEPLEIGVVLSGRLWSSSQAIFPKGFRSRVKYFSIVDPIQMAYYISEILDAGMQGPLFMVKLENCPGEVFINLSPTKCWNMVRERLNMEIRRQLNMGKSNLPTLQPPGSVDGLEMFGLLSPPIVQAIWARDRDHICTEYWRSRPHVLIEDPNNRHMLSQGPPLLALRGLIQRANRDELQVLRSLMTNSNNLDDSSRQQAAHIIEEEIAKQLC

[2] = molecular target: EMF2b-Flag-HA (rice (Oryza sativa)); assay: co-IP; JMJ703 or JMJ704 transiently expressed in protoplasts of 35S::EMF2b-Flag-HA/Nip transgenic plants
[3] = molecular target: EMF2b, split firefly luciferase fusion (rice (Oryza sativa)) (UniProt Q69KN0); assay: split reporter; split firefly luciferase complementation (SFLC); pairs of plasmids co-infiltrated in Nicotiana benthamiana leaves

Hemagglutinin (HA)-tagged EMF2b (EMF2b-HA) (rice (Oryza sativa))
binding [1]: binds

B1: JMJ703 transiently expressed in rice protoplasts (tag not shown) (protein, UniProt Q53WJ1 1-1238)
chain: T1 sequence
binding [2]: binds

B2: JmjC-domain-containing protein 703 (JMJ703), split firefly luciferase fusion (protein, UniProt Q53WJ1 1-1238)
chain: T1 sequence
binding [3]: binds

These are yes or no findings as the source states them, for the method shown. Binding seen in cells or lysates may run through a third protein. Binding can be weak; no strength is given. Where a sequence is shown, tags or fusion partners need not be part of it.
